Data as given in PubChem BioAssay AID504774 (Drosophila RNAi Screening Center, 2011).
Screen: 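Knock-downs that shift viability of MMS-exposed cells relative to untreated ones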 (primary screen). Cells: Drosophila Kc167 cells. Reagent: long dsRNA against Drosophila genes, about 0.25 µg dsRNA per well. Duration: about 6 days: 3 days knock-down, then 3 days with or without MMS. Conditions: methyl methanesulphonate 0.004% (w/v) for 3 days after knock-down. Read-out: 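ATP-dependent luminescence as a measure of live cells in MMS-exposed wells, quantile normalised within each plate, with replicate values also given as a mean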. Direction: mean viability with MMS and viability with MMS: higher = more surviving cells after MMS.
The screen tested about 23,000 reagents; shown is a random part of those with a known target gene and a result. 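Values are quantile-normalised luminescence on an arbitrary scale; higher means more cells surviving MMS.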 The numbers tell different reagents against one gene apart.

mean viability with MMS	viability with MMS, replicate 1	viability with MMS, replicate 2	gene knocked down	reagent
3.48e6	4.01e6	3.83e6	CG5639	1
3.29e6	3.25e6	4.06e6	Gs1 (Glutamine synthetase 1)	1
3.44e6	3.73e6	4.03e6	mRpL51 (mitochondrial ribosomal protein L51)	1
3.78e6	4.02e6	4.56e6	CG5112	1
3.58e6	4.14e6	4.01e6	CG15212	1
3.75e6	4.29e6	4.13e6	Adi1 (Acireductone dioxygenase 1)	1
3.73e6	4.16e6	4.23e6	Adi1 (Acireductone dioxygenase 1)	2
3.61e6	4.13e6	4.04e6	CG2701	1
3.69e6	4.14e6	4.15e6	Neu2 (Neuroectoderm-expressed 2)	1
3.39e6	3.71e6	3.92e6	CG4294	1
3.51e6	4.07e6	3.88e6	EMC10 (ER membrane protein complex subunit 10)	1
3.40e6	3.79e6	3.87e6	Lsp2 (Larval serum protein 2)	1
3.55e6	3.95e6	4.10e6	Lsp2 (Larval serum protein 2)	2
3.52e6	3.97e6	4.03e6	Nup35 (Nucleoporin 35kDa)	1
3.61e6	4.01e6	4.14e6	tws (twins)	1
3.23e6	3.69e6	3.71e6	tws (twins)	2
3.54e6	3.88e6	4.15e6	CG13062	1
3.67e6	4.27e6	4.02e6	CG34244	1

Taken from above:
Result for Lsp2 (Larval serum protein 2) #2 in “viability with MMS, replicate 1”: 3.95e6
For “viability with MMS, replicate 2”, tws (twins) #2 has 3.71e6
CG5639, viability with MMS, replicate 2 → 3.83e6
Value for CG15212 in “viability with MMS, replicate 1”: 4.14e6

The list goes on:
mean viability with MMS	viability with MMS, replicate 1	viability with MMS, replicate 2	gene knocked down	reagent
2.98e6	3.60e6	3.63e6	RpL21 (Ribosomal protein L21)	1
3.50e6	3.95e6	4.04e6	Cpr51A (Cuticular protein 51A)	1
3.59e6	4.22e6	3.93e6	chico	1
3.43e6	3.81e6	3.88e6	Eogt (EGF-domain O-GlcNAc transferase)	1
3.58e6	4.09e6	4.02e6	Asph (Aspartyl beta-hydroxylase)	1
3.52e6	3.97e6	4.02e6	Asph (Aspartyl beta-hydroxylase)	2
3.48e6	3.88e6	3.98e6	CG10336	1
3.61e6	3.92e6	4.26e6	CG7692	1
3.51e6	3.92e6	4.03e6	Dp1 (Dodeca-satellite-binding protein 1)	1
3.41e6	3.89e6	3.77e6	CG5612	1
